# Source: paper PMC5814901
# No constants are given. Whether binding was seen depends on the method and setting. Binding calls can cover weak binding; strength is not graded here.
# B1: UvrB (Bacillus caldotenax) (protein, UniProt P56981 1-658)
# chain: MVEGRFQLVAPYEPQGDQPQAIAKLVDGLRRGVKHQTLLGATGTGKTFTISNVIAQVNKPTLVIAHNKTLAGQLYSELKEFFPHNAVEYFVSYYDYYQPEAYVPQTDTYIEKDAKINDEIDKLRHSATSALFERRDVIIVASVSCIYGLGSPEEYRELVVSLRVGMEIERNALLRRLVDIQYDRNDIDFRGTFRVRGDVVEIFPASRDEHCIRVEFFGDEIERIREVDALTGKVLGEREHVAIFPASHFVTREEKMRLAIQNIEQELEERLAELRAQGKLLEAQRLEQRTRYDLEMMREMGFCSGIENYSRHLALRPPGSTPYTLLDYFPDDFLIIVDESHVTLPQLRGMYNGDRARKQVLVDHGFRLPSALDNRPLTFEEFEQKINQIIYVSATPGPYELEHSPGVVEQIIRPTGLLDPTIDVRPTKGQIDDLIGEIRERVERNERTLVTTLTKKMAEDLTDYLKEAGIKVAYLHSEIKTLERIEIIRDLRLGKYDVLVGINLLREGLDIPEVSLVAILDADKEGFLRSERSLIQTIGRAARNANGHVIMYADTITKSMEIAIQETKRRRAIQEEYNRKHGIVPRTVKKEIRDVIRATYAAEETEMYEAKPAAAMTKQEREELIRTLEAEMKEAAKALDFERAAQLRDIIFELKAEG
# What was measured:
# [1] = molecular target: UvrA (Bacillus caldotenax) (Bacillus caldotenax); assay: single-molecule fluorescence imaging of Qdot-labelled complexes on damaged DNA tightropes; λ-DNA tightropes with one fluorescein-dT lesion marked by streptavidin Qdot565; UvrAB singly labelled on UvrB with Qdot655; complexes bound to DNA counted; room temperature; ABC buffer; both purified
# [2] = molecular target: ZnG–UvrA (UvrA in which the tip of the C-terminal zinc finger is removed) (Bacillus caldotenax); assay: as above
binder,measurement,setting,value
B1,binding,[1],binds
same,binding,[2],binds
